This note sets out measurements from the supplement of paper PMC4604168 (melanoma cell lines).

Some of the results follow. Many values rest on one well or one pass, so single values are uncertain.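 Imaging used 1,536-well plates; nuclei positive for cleaved PARP by antibody were divided by total DNA-stained nuclei to yield the apoptosis fraction. Doses for screening kept most cells viable, and cell lines differ markedly in resting and induced cleaved-PARP levels.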

The test system of this assay is COLO800. As to the kind of experiment: cleaved PARP positive nuclei fraction relative to DMSO control; melanoma cells; higher = more apoptosis. Conditions: library dose: low library concentration; 72 h.
Consider `Cn1sc(=O)n(Cc2ccccc2)c1=O` + C=CCNC1=C2C[C@@H](C)C[C@H](OC)[C@H](O)[C@@H](C)/C=C(\C)[C@H](OC(N)=O)[C@@H](OC)/C=C\C=C(/C)C(=O)NC(=CC1=O)C2=O [Tanespimycin] (first compound 0.4 µM, partner dose 0.002 µM), for which the “cleaved PARP positive nuclei fraction” value is 76.2%.

For `Cn1cnc2c(F)c(Nc3ccc(Br)cc3Cl)c(C(=O)NOCCO)cc21` [selumetinib] + COc1ccc2c(c1)CCC1C2CCC2(C)C(NCCCCCCN3C(=O)C=CC3=O)CCC12 [U73122] (first compound 0.015 µM, partner dose 0.4 µM), the “cleaved PARP positive nuclei fraction” value is 87.9%.

Take `CCCCCCCCc1ccc(CCC(N)(CO)CO)cc1` [fingolimod] + CC(C)(C)c1cnc(CSc2cnc(NC(=O)C3CCNCC3)s2)o1 [SNS-032] (first compound 2 µM, partner dose 0.01 µM): the “cleaved PARP positive nuclei fraction” value amounted to 163%.

Consider `NC(=O)c1ccc(N(C(N)=O)c2c(F)cccc2F)nc1-c1ccc(F)cc1F` + COCC[n+]1c2c(n(Cc3cnccn3)c1C)C(=O)c1ccccc1C2=O [YM155] (first compound 0.4 µM, partner dose 0.0004 µM), for which the “cleaved PARP positive nuclei fraction” value was determined as 182%.

As for `NC1(c2ccc(-c3nc4ccn5c(=O)[nH]nc5c4cc3-c3ccccc3)cc2)CCC1` + CO[C@@H]1[C@H](N(C)C(=O)c2ccccc2)C[C@H]2O[C@]1(C)n1c3ccccc3c3c4c(c5c6ccccc6n2c5c31)C(=O)NC4 [Midostaurin] (first compound 0.4 µM, partner dose 0.08 µM), the “cleaved PARP positive nuclei fraction” value turned out to be 29.9%.

As to `CC1(C)CCC(c2ccc(Cl)cc2)=C(CN2CCN(c3ccc(C(=O)NS(=O)(=O)c4ccc(N[C@H](CCN5CCOCC5)CSc5ccccc5)c(S(=O)(=O)C(F)(F)F)c4)cc3)CC2)C1` + Cn1nnc2c(C(N)=O)ncn2c1=O [temozolomide] (first compound 0.4 µM, partner dose 2 µM), the “cleaved PARP positive nuclei fraction” value worked out at 120%.

Turning to `CN(c1ncccc1CNc1nc(Nc2ccc3c(c2)CC(=O)N3)ncc1C(F)(F)F)S(C)(=O)=O` + CO[C@@H]1[C@H](N(C)C(=O)c2ccccc2)C[C@H]2O[C@]1(C)n1c3ccccc3c3c4c(c5c6ccccc6n2c5c31)C(=O)NC4 [Midostaurin] (first compound 0.08 µM, partner dose 0.08 µM), the “cleaved PARP positive nuclei fraction” value was 59.8%.

As to `Cn1sc(=O)n(Cc2ccccc2)c1=O` + c1cc(-c2cnn3cc(-c4ccc(OCCN5CCCCC5)cc4)cnc23)ccn1 [Dorsomorphin] (first compound 0.4 µM, partner dose 0.4 µM), the “cleaved PARP positive nuclei fraction” value turned out to be 80%.

Turning to `CC(=O)O[C@@]12CO[C@@H]1C[C@H](O)[C@@]1(C)C(=O)[C@H](O)C3=C(C)[C@@H](OC(=O)[C@H](O)[C@@H](NC(=O)OC(C)(C)C)c4ccccc4)C[C@@](O)([C@@H](OC(=O)c4ccccc4)[C@H]21)C3(C)C` [Docetaxel] + N#Cc1c(O)c2c(-c3ccc(-c4ccccc4O)cc3)csc2[nH]c1=O [A769662] (first compound 0.0001 µM, partner dose 2 µM), the “cleaved PARP positive nuclei fraction” value worked out at 519%.

On to `Cn1cnc2c(F)c(Nc3ccc(Br)cc3Cl)c(C(=O)NOCCO)cc21` [selumetinib] + OCCn1cc(-c2cnc3nnn(Cc4ccc5ncccc5c4)c3n2)cn1 [PF04217903] (first compound 0.015 µM, partner dose 1 µM), for which the “cleaved PARP positive nuclei fraction” value was found to be 77.1%.

On to `Cn1cnc2c(F)c(Nc3ccc(Br)cc3Cl)c(C(=O)NOCCO)cc21` [selumetinib] + Oc1cc(-c2nc(-c3ccccc3)[nH]c2-c2ccncc2)ccc1Cl [L779450] (first compound 0.015 µM, partner dose 0.2 µM), for which the “cleaved PARP positive nuclei fraction” value worked out at 183%.

For the compound `Cn1sc(=O)n(Cc2ccccc2)c1=O` + CCCCCCCCCCCC1=C(O)C(=O)C=C(O)C1=O [Embelin] (first compound 0.4 µM, partner dose 1.2 µM), the “cleaved PARP positive nuclei fraction” value was 127%.

With `CCN(CC)CCNC(=O)c1c(C)[nH]c(/C=C2\C(=O)Nc3ccc(F)cc32)c1C` [sunitinib] + CCc1ccc(CCOc2ccc(CC3SC(=O)NC3=O)cc2)nc1 [pioglitazone] (first compound 0.4 µM, partner dose 2 µM), the “cleaved PARP positive nuclei fraction” value turned out to be 87.1%.
